Test results: ChEMBL document CHEMBL4316593 (Eur J Med Chem, 2019)
This continues a long series; more values of the same kind are listed elsewhere.

Assays:
Format in all cases: cell-based
Conditions in all cases: U-87MG ATCC
[1] = Inhibition of RTK/PI3K/AKT/mTOR signaling in human U87 cells assessed as up regulation of signal sequence receptor subunit 1 gene expression at cytotoxic IC50 measured after 48 hrs relative to control
[2] = Inhibition of RTK/PI3K/AKT/mTOR signaling in human U87 cells assessed as up regulation of dynein light chain Tctex-type 1 gene expression at cytotoxic IC50 measured after 48 hrs relative to control
[3] = Inhibition of RTK/PI3K/AKT/mTOR signaling in human U87 cells assessed as down regulation of ATG2B gene expression at cytotoxic IC50 measured after 48 hrs relative to control
[4] = Inhibition of RTK/PI3K/AKT/mTOR signaling in human U87 cells assessed as up regulation of carbohydrate sulfotransferase 6 gene expression at cytotoxic IC50 measured after 48 hrs relative to control
[5] = Inhibition of RTK/PI3K/AKT/mTOR signaling in human U87 cells assessed as up regulation of HEXIM1 gene expression at cytotoxic IC50 measured after 48 hrs relative to control
[6] = Inhibition of RTK/PI3K/AKT/mTOR signaling in human U87 cells assessed as down regulation of PSMD12 gene expression at cytotoxic IC50 measured after 48 hrs relative to control
[7] = Inhibition of RTK/PI3K/AKT/mTOR signaling in human U87 cells assessed as up regulation of glutathione S-transferase omega 2 gene expression at cytotoxic IC50 measured after 48 hrs relative to control
[8] = Inhibition of RTK/PI3K/AKT/mTOR signaling in human U87 cells assessed as down regulation of NUP37 gene expression at cytotoxic IC50 measured after 48 hrs relative to control
[9] = Inhibition of RTK/PI3K/AKT/mTOR signaling in human U87 cells assessed as up regulation of HLF gene expression at cytotoxic IC50 measured after 48 hrs relative to control
[10] = Inhibition of RTK/PI3K/AKT/mTOR signaling in human U87 cells assessed as up regulation of ilvB acetolactate synthase like gene expression at cytotoxic IC50 measured after 48 hrs relative to control
[11] = Inhibition of RTK/PI3K/AKT/mTOR signaling in human U87 cells assessed as up regulation of endoplasmic reticulum oxidoreductase 1 alpha gene expression at cytotoxic IC50 measured after 48 hrs relative to control
[12] = Inhibition of RTK/PI3K/AKT/mTOR signaling in human U87 cells assessed as up regulation of SERPINF2 gene expression at cytotoxic IC50 measured after 48 hrs relative to control
[13] = Inhibition of RTK/PI3K/AKT/mTOR signaling in human U87 cells assessed as up regulation of NOB1 gene expression at cytotoxic IC50 measured after 48 hrs relative to control
[14] = Inhibition of RTK/PI3K/AKT/mTOR signaling in human U87 cells assessed as up regulation of IL18 gene expression at cytotoxic IC50 measured after 48 hrs relative to control
[15] = Inhibition of RTK/PI3K/AKT/mTOR signaling in human U87 cells assessed as down regulation of UNC119 gene expression at cytotoxic IC50 measured after 48 hrs relative to control
[16] = Inhibition of RTK/PI3K/AKT/mTOR signaling in human U87 cells assessed as down regulation of PBK gene expression at cytotoxic IC50 measured after 48 hrs relative to control
[17] = Inhibition of RTK/PI3K/AKT/mTOR signaling in human U87 cells assessed as up regulation of PC-esterase domain containing 1A gene expression at cytotoxic IC50 measured after 48 hrs relative to control
[18] = Inhibition of RTK/PI3K/AKT/mTOR signaling in human U87 cells assessed as down regulation of GPATCH2L gene expression at cytotoxic IC50 measured after 48 hrs relative to control
[19] = Inhibition of RTK/PI3K/AKT/mTOR signaling in human U87 cells assessed as up regulation of PRAG1 gene expression at cytotoxic IC50 measured after 48 hrs relative to control
[20] = Inhibition of RTK/PI3K/AKT/mTOR signaling in human U87 cells assessed as up regulation of intraflagellar transport 140 gene expression at cytotoxic IC50 measured after 48 hrs relative to control
[21] = Inhibition of RTK/PI3K/AKT/mTOR signaling in human U87 cells assessed as down regulation of TTC1 gene expression at cytotoxic IC50 measured after 48 hrs relative to control
[22] = Inhibition of RTK/PI3K/AKT/mTOR signaling in human U87 cells assessed as up regulation of serine/threonine kinase 11 interacting protein gene expression at cytotoxic IC50 measured after 48 hrs relative to control
[23] = Inhibition of RTK/PI3K/AKT/mTOR signaling in human U87 cells assessed as up regulation of PTPRF interacting protein alpha 3 gene expression at cytotoxic IC50 measured after 48 hrs relative to control
[24] = Inhibition of RTK/PI3K/AKT/mTOR signaling in human U87 cells assessed as up regulation of NR2F2 gene expression at cytotoxic IC50 measured after 48 hrs relative to control
[25] = Inhibition of RTK/PI3K/AKT/mTOR signaling in human U87 cells assessed as down regulation of RIOK2 gene expression at cytotoxic IC50 measured after 48 hrs relative to control
[26] = Inhibition of RTK/PI3K/AKT/mTOR signaling in human U87 cells assessed as up regulation of family with sequence similarity 168 member A gene expression at cytotoxic IC50 measured after 48 hrs relative to control
[27] = Inhibition of RTK/PI3K/AKT/mTOR signaling in human U87 cells assessed as down regulation of MCOLN3 gene expression at cytotoxic IC50 measured after 48 hrs relative to control
[28] = Inhibition of RTK/PI3K/AKT/mTOR signaling in human U87 cells assessed as down regulation of MAP3K3 gene expression at cytotoxic IC50 measured after 48 hrs relative to control
[29] = Inhibition of RTK/PI3K/AKT/mTOR signaling in human U87 cells assessed as down regulation of GPATCH2 gene expression at cytotoxic IC50 measured after 48 hrs relative to control
[30] = Inhibition of RTK/PI3K/AKT/mTOR signaling in human U87 cells assessed as down regulation of USP22 gene expression at cytotoxic IC50 measured after 48 hrs relative to control
[31] = Inhibition of RTK/PI3K/AKT/mTOR signaling in human U87 cells assessed as up regulation of Kruppel like factor 4 gene expression at cytotoxic IC50 measured after 48 hrs relative to control
[32] = Inhibition of RTK/PI3K/AKT/mTOR signaling in human U87 cells assessed as up regulation of SERPINA5 gene expression at cytotoxic IC50 measured after 48 hrs relative to control

For `CC(=O)C(=NNc1ccccc1C#N)C(C)=O`, the log2FC [1] was 0.738, the log2FC [2] was 0.772 and the log2FC [3] was -0.842. It also gave a log2FC [4] of 1.32, a log2FC [5] of 0.596 and a log2FC [6] of -0.427. For the same compound, the log2FC [7] was 0.704, the log2FC [8] was -0.716 and the log2FC [9] was 2.11. For the same compound, the log2FC [10] was 1.25, the log2FC [11] was 0.848 and the log2FC [12] was 2.22. For the same compound, the log2FC [13] was 0.5, the log2FC [14] was 0.591 and the log2FC [15] was -0.881. The log2FC [16] was -0.849, the log2FC [17] was 1.12 and the log2FC [18] was -0.718. It also gave a log2FC [19] of 0.592, a log2FC [20] of 0.971 and a log2FC [21] of -0.542. It also gave a log2FC [22] of 1.04, a log2FC [23] of 1.2 and a log2FC [24] of 0.614. The log2FC [25] was -1.18, the log2FC [26] was 0.77 and the log2FC [27] was -1.19. It also gave a log2FC [28] of -0.889, a log2FC [29] of -1.43 and a log2FC [30] of -0.468. It also gave a log2FC [31] of 1.45 and a log2FC [32] of 2.35.
